From the supplement of paper PMC10338343 come the findings set out here.

Test [1] concerns EfPiwi piRISC loaded with piRNA #1 (26 nt). The test is described as follows: pre-steady-state target cleavage rate (min^-1); guide: piRNA #1 5'p-UGAGGUAGUAGGUUGUAUAGUAUCCA; higher = faster piRNA-guided slicing of the target. The following applies: auxiliary factor: 500 nM Ephydatia muelleri Gtsf1. The procedure, abridged:
(§1)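 Cleave-'n-Seq measured uncleaved targets by sequencing after a transcribed, DNA-blocked target RNA library […] was mixed with 1 nM active affinity-purified piRISC holding one synthetic guide, with or without 500 nM GTSF1 partner protein, at 33 °C in HEPES–potassium acetate buffer for 0–8 or 0–960 min. Counts were normalised to depth and to weakly complementary targets, three trials were pooled, and k3 was capped at 0.0001 min^-1. A burst-and-steady-state fit gave the pre-steady-state cleavage rate.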

Test [2] has as its system MIWI (PIWIL1) piRISC loaded with piRNA #1 (30 nt). The test is described as follows: pre-steady-state target cleavage rate (min^-1); MIWI and MILI are mouse PIWI proteins and EfPiwi is from a freshwater sponge; tags in brackets are library labels; higher = faster piRNA-guided slicing of the target. Conditions: guide: piRNA #1 5'p-UGAGGUAGUAGGUUGUAUAGUAUCCAGAGG; auxiliary factor: 500 nM mouse GTSF1. The procedure, abridged:
as §1

± gives the standard deviation. Only a part is listed here, and it is no random draw. Many entries were measured with a wide error.

For GGAGACCUAUGUAUACUACCUACUACGUCA, in test [1], the “pre-steady-state target cleavage rate” value was 0.00126 ± 0.0035. For the sequence GGAGACCUAUGUAUACAACCUACAUCCUCA, the “pre-steady-state target cleavage rate” value in test [1] amounted to 0.000246 ± 0.0098. Consider GGAGACGAUACUAUACAGCCUACUACCUCA, for which the entries for the “pre-steady-state target cleavage rate” value in test [2] and in test [1] were 0.668 ± 0.028 and 0.0104 ± 0.0039, respectively. For GGAGACCUAUGUAUACUACCUACAACCUCA the same measures were 0.000747 ± 0.0078 and 0.00025 ± 0.011.

GGAGACCUAUGUAUACUAGCUACUACCUCA: the “pre-steady-state target cleavage rate” value in test [2] was determined as 0.00105 ± 0.0071; in test [1], 0.000405 ± 0.0054. In the same order, the values of GGAGACCUAACUUUACUACCUACUACCUCA are 0.00226 ± 0.0052 and 0.00117 ± 0.0066. For the sequence GGAGACCUAACUAUACAACCUACUACCUGA, the “pre-steady-state target cleavage rate” value in test [1] turned out to be 0.00393 ± 0.002. As for GGAGACCUAUGAUAACAACCUACAUACCUCA, the “pre-steady-state target cleavage rate” value turned out to be 0.000894 ± 0.0036 in test [2] and 0.000159 ± 0.027 in test [1]. For GGAGACCUUUCUAUACAACCUACUACGUCA, the “pre-steady-state target cleavage rate” value in test [1] was 0.00332 ± 0.0036.

Consider GGAGUGGAUUCUAUACAACCUACUAGCUCA, for which, in test [1], the “pre-steady-state target cleavage rate” value amounted to 0.00173 ± 0.0029. Turning to GGAGUGGAUACUAUAGAACCUACUAGCUCA, the “pre-steady-state target cleavage rate” value in test [2] was 0.00173 ± 0.0032; in test [1], 0.00232 ± 0.0015. For GGAGACCUAUGAUUACAUCCUACUACGUCA the same measures were 0.00195 ± 0.0031 and 0.00157 ± 0.0043.

In the case of GGAGACCUAUGAAUACAACGUACUACCUCA, the “pre-steady-state target cleavage rate” value in test [2] came to 0.000348 ± 0.0063; in test [1], 0.00114 ± 0.0056. Consider GGAGACCUAACUAUACAACCUACUCACCUCA, for which the “pre-steady-state target cleavage rate” value in test [1] was 0.00244 ± 0.0048. Turning to GGAGACCUAACAAUACAACCAACUACCUCA, the “pre-steady-state target cleavage rate” value was found to be 0.00111 ± 0.0079 in test [2] and 0.000738 ± 0.011 in test [1].

For the sequence GGAGACCUAUGAAUACAACCUACUACCAUCA, the figures for the “pre-steady-state target cleavage rate” value in test [2] and in test [1] were 0.000986 ± 0.0036 and 0.000804 ± 0.0087, respectively.

In the case of GGAGACCUUACUAUAGAAGCUACUACCUCA, in test [1], the “pre-steady-state target cleavage rate” value came out at 0.00234 ± 0.0054. As for GGAGACCUAUGAAUACAACGUACAACCUCA, the “pre-steady-state target cleavage rate” value in test [2] turned out to be 0.000154 ± 0.023; in test [1], 0.000927 ± 0.011. On to GGAGACCUAUGAAUACAUCCUACUUCCUCA, for which the “pre-steady-state target cleavage rate” value was determined as 0.00087 ± 0.0044 in test [2] and 0.00038 ± 0.007 in test [1].

Regarding GGAGACCUAUGAUUACAACCUACAACCUCA, the “pre-steady-state target cleavage rate” value in test [2] was 0.000331 ± 0.0065; in test [1], 0.00134 ± 0.0049. Turning to GGAGACGAUACUAUACAACCUACUACCUA, in test [1], the “pre-steady-state target cleavage rate” value came out at 0.104 ± 0.038.

Turning to GGAGACCUAUGUAUAGCAACCUACUACCUCA, the entries for the “pre-steady-state target cleavage rate” value in test [2] and in test [1] were 0.00159 ± 0.0033 and 0.00125 ± 0.0065, respectively.

Turning to GGAGACCUAUGUAUAUCAACCUACUACCUCA, the entries for the “pre-steady-state target cleavage rate” value in test [2] and in test [1] were 0.00121 ± 0.0031 and 0.0039 ± 0.0041, respectively.

Consider GGAGACCUAUGAUAACAACCUUCUACCUCA, for which the “pre-steady-state target cleavage rate” value in test [2] was 0.00127 ± 0.0027; in test [1], 0.00029 ± 0.0069.

GGAGACCUAUGUAUACUACCUAGUACCUCA: the “pre-steady-state target cleavage rate” value in test [2] was 0.000419 ± 0.0053; in test [1] it was 0.000371 ± 0.01. For GGAGACCUAUGAAUACAACCUACUAACCUCA the same measures were 0.00192 ± 0.0031 and 0.000438 ± 0.0095. In the same order, the values of GGAGACCUAUGAUUACAAACUACUACCUCA are 0.00125 ± 0.004 and 0.000457 ± 0.0065. As to GGAGAGGAUACUAUACAACCUACUCACCUCA, the “pre-steady-state target cleavage rate” value in test [1] worked out at 0.00339 ± 0.0021. Take GGAGACCUAUGAUAUGUUCCUGACUACCUCA: the “pre-steady-state target cleavage rate” value turned out to be 0.000116 ± 0.021 in test [2] and 0.000211 ± 0.013 in test [1].

In the case of GGAGUGGAUAGUAUACAACCUACUACCACA, the “pre-steady-state target cleavage rate” value in test [1] came to 0.00327 ± 0.0018. GGAGACCUAUGAUUACAUCCUACUUCCUCA: the “pre-steady-state target cleavage rate” value turned out to be 0.00119 ± 0.0057 in test [2] and 0.00047 ± 0.0059 in test [1]. In the same order, the values of GGAGACCUAUGUAAACAACCUACUACGUCA are 0.0027 ± 0.0033 and 0.000902 ± 0.0062. GGAGACCUAUCUAUACAACCUACUAGCUGA: the “pre-steady-state target cleavage rate” value in test [1] came out at 0.00272 ± 0.0052.

As for GGAGACCAUAUAUACAACCUACUACCUCA, the “pre-steady-state target cleavage rate” value in test [2] is 0.184 ± 0.018; in test [1] it was 0.00541 ± 0.0043.

On to GGAGACCAUAACUAUACAACCUACUACCUCA, for which, in test [1], the “pre-steady-state target cleavage rate” value is 0.138 ± 0.043. As for GGAGACCUAUCUAUACAACGUACUAGCUCA, in test [1], the “pre-steady-state target cleavage rate” value stood at 0.0017 ± 0.0059. GGAGACCUAUGUAUACAACCUCCUACCUCA: in test [1], the “pre-steady-state target cleavage rate” value came out at 0.00207 ± 0.0047. Turning to GGAGACCUAACUAUUCAACCUACUAGCUCA, the “pre-steady-state target cleavage rate” value in test [1] is 0.00111 ± 0.0062. For the sequence GGAGACCUAUGAUAACAACCUCCUACCUCA, the “pre-steady-state target cleavage rate” value in test [1] came out at 0.00112 ± 0.0078. Still for that read-out and setting: for GGAGACCUAUCUAUAACAACCUACUACCUCA the value was 0.00453 ± 0.0037; for GGAGACCUAUGUAUACAACCUACUAUCUCA, 0.00205 ± 0.0047. Turning to GGAGAGGAUACUAUAGAACGUACUACCUCA, the “pre-steady-state target cleavage rate” value in test [1] amounted to 0.00158 ± 0.002. The same measure, in the same setting: the result for GGAGACGAUACUAUACAACACUACUACCUCA reads 0.00912 ± 0.0032; that for GGAGUGGAUACUAUACAAGCUACUACCUGA, 0.00454 ± 0.0019; that for GGAGACCUAUGAUAUGUUGCUAGCUACCUCA, 0.000894 ± 0.0046.

As for GGAGACCUAUCUAUACAAGCUACUACGUCA, in test [1], the “pre-steady-state target cleavage rate” value stood at 0.00274 ± 0.0026. Take GGAGUGGAUACUAGUACAACCUACUACCUCA: in test [1], the “pre-steady-state target cleavage rate” value is 0.175 ± 0.056. Still for that read-out and setting: for GGAGACCUAUGUAUACAAGCUACUAGCUCA the value was 0.0012 ± 0.0054; for GGAGACCUAACUAUACAACCUAGAACCUCA, 0.000316 ± 0.0088; for GGAGUGGAUACUAUACAACCUAUCUACCUCA, 0.00584 ± 0.0027. Same read-out and setting: for GGAGACGAUACUAUACACCCUACUACCUCA the value was 0.011 ± 0.0045; for GGAGACCUAACUAUACAAGCUACUUCCUCA, 0.00164 ± 0.0025; for GGAGAGCAUACUUUACAACCUACUACCUCA, 0.0083 ± 0.0045. With GGAGACCUUACAUACAACCUACUACCUCA, the “pre-steady-state target cleavage rate” value in test [1] was 0.00863 ± 0.0045. Still for that read-out and setting: the result for GGAGACCUAUGAUUUGUACCUACUACCUCA reads 0.000793 ± 0.0073; that for GGAGACCUUACUAUUCAAGCUACUACCUCA, 0.00223 ± 0.0055; that for GGAGACCAUACUACACAACCUACUACCUCA, 0.0182 ± 0.0078.

As to GGAGACGAUACUAUACAACCUACUUACCUCA, the “pre-steady-state target cleavage rate” value in test [1] was found to be 0.0069 ± 0.0023. Still for that read-out and setting: for GGAGACCUAUCUAUACAACCUACUACCUAA the value was 0.00267 ± 0.0042; for GGAGAGGAUUCUAUACAACCUACUUCCUCA, 0.00104 ± 0.0038; for GGAGACCUAUCUAUACUACGUACUACCUCA, 0.00156 ± 0.0038. Regarding GGAGAGGAUACUAUACAACCUACAACCUCA, the “pre-steady-state target cleavage rate” value in test [1] was 0.00428 ± 0.0019. Same read-out and setting: for GGAGUGGAUACUAUACAACGUAGUACCUCA the value was 0.00292 ± 0.0011; for GGAGUGGAUACUAUACAACGUACUACGUCA, 0.0036 ± 0.0015. For the sequence GGAGACCUAUGAAUACAACCUACUAACUCA, the “pre-steady-state target cleavage rate” value in test [1] was determined as 0.000765 ± 0.0066. On the same count and under the same terms, for GGAGACCAUACUAUACAACCUACAUCCUCA the value was 0.00325 ± 0.0028; for GGAGACCAUACUAAACAACCAACUACCUCA, 0.0012 ± 0.0066; for GGAGACCUAUGAUAUGUUGGUACUACCAUCA, 0.000689 ± 0.0059.

Consider GGAGAGGAUACAUACAACCUACUACCUCA, for which the “pre-steady-state target cleavage rate” value in test [1] is 0.0103 ± 0.005.

Regarding GGAGUGGAUACAAAACAACCUACUACCUCA, the “pre-steady-state target cleavage rate” value in test [1] was determined as 0.00279 ± 0.0043. As to GGAGACCUAUGUAUACAUCCUACAACCUCA, in test [1], the “pre-steady-state target cleavage rate” value stood at 0.000266 ± 0.0099. As for GGAGACCUAACAAUACAACCUAGUACCUCA, the “pre-steady-state target cleavage rate” value in test [1] turned out to be 0.00204 ± 0.0036.

Turning to “GGAGACCUAACUAUACAACCAUGAUGGAGA [g11:g21:cont:t1A]”, the “pre-steady-state target cleavage rate” value in test [1] stood at 0.00117 ± 0.0073. Still for that read-out and setting: for GGAGACCUAUGAUAUGAAACUACUACCUCA the value was 0.000781 ± 0.0072.
